Like-named read-outs stand apart in the source and are kept apart here. Results are given in words; binding and its absence hold for the method and conditions named. In cells and extracts the contact can be indirect. These calls come from enrichment with a bait or labelling near it, and not all partners need be listed.
Experiments:
[1] = molecular target: Chaetomium thermophilum CCDC47 with a FLAG tag (Chaetomium thermophilum) (UniProt G0S5M5); assay: affinity purification with mass spectrometry
[2] = molecular target: Chaetomium thermophilum CCDC47 with a FLAG tag (Chaetomium thermophilum) (UniProt G0S5M5); assay: affinity purification with mass spectrometry; remark: listed apart in the source
[3] = molecular target: Chaetomium thermophilum SND3 with a C-terminal TwinStrep tag (Chaetomium thermophilum) (UniProt G0RYQ7); assay: affinity purification with mass spectrometry + SEC

Protein sequences, listed by entry. Tags and fused reporters are not part of them. Lines headed by an entry give the natural chain unless they say otherwise; changes in a name come on top.
UniProt G0S5M5: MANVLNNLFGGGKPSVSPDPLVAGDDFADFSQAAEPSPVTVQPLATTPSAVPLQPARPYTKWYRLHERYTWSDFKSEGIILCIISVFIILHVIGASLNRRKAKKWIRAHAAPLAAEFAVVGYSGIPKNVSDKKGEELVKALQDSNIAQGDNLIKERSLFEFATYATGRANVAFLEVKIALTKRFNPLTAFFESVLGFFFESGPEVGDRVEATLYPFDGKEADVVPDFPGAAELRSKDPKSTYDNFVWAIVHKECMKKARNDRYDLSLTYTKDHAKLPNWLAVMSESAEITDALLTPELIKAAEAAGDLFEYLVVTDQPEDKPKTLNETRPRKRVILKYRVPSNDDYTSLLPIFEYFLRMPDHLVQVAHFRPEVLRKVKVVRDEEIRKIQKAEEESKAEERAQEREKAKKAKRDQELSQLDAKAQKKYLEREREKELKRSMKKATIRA

Row | binding [1] | binding [2] | binding [3] | Substance
1 | binds | binds |  | Chaetomium thermophilum SND3 with a C-terminal TwinStrep tag (from UniProt G0RYQ7)
2 |  |  | binds | Chaetomium thermophilum CCDC47 (untagged, endogenous) (from UniProt G0S5M5)
